Reference: patent US20060191037
The comparison behind a weaker result is the experiment's own reference, which may not be listed here.

Amino acid sequences for entries named in this document (tags omitted). A change or cut given only in a name is not applied to a line headed by its entry.
UniProt Q6VWJ6: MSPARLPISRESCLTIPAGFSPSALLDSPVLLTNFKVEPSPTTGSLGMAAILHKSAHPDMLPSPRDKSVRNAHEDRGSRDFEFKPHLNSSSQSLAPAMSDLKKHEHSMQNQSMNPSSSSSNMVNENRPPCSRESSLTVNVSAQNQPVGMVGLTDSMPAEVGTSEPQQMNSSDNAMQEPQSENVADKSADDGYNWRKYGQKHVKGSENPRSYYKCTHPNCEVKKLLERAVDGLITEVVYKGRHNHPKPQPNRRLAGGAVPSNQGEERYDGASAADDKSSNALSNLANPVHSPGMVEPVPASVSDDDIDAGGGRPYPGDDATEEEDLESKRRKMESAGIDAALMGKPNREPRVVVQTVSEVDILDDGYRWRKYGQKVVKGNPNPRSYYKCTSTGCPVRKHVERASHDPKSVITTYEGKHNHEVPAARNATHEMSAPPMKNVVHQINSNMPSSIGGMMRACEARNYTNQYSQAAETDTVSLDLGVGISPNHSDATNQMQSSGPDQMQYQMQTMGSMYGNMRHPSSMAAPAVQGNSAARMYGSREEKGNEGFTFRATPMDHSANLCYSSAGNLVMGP

Target: SUSIBA2 (WRKY transcription factor + purified fraction with 70 and 68 kDa forms) (Hordeum vulgare) (UniProt Q6VWJ6)
Assay: footprint
Settings: within promoter fragment; weaker than SURE-b; purified recombinant protein; protein details: N-terminal His-tag (pET-15b, E. coli BL21(DE3))

Sequence: CCGAAAAAAACTAAGAAAGACCGATG (double strand) [iso1 SURE-a site]
- binding result: binds more weakly
